Results: PubChem BioAssay AID2685 (National Center for Advancing Translational Sciences (NCATS), 2010)
This is one part of the list. Shown are side measurements of this screen, not its main read-out; they come without a call. Compounds called inactive in the main read-out are mostly missing here. Potencies come from curve fits of mixed quality, noted in brackets.

Assay: qHTS Assay for Lipid Storage Modulators in Drosophila S3 Cells;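 for cell number change: cells counted by Cell Tracker Red CMTPX staining in the red channel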
Conditions: BODIPY lipid droplet fluorescence, 18-24 h; for cell number change: measured here: cell count max response, cells fed with added oleic acid
How it was run: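 Laser-scanning cytometry quantifies lipid droplet accumulation (500–530 nm total intensity; droplet/cell object ratio) in oleic acid-fed (400 uM added) Drosophila S3 cells treated with a concentration series. 20 uM Triacsin C defined 100% inhibition.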

[1] = measured here: cell number channel AC50, cells fed with added oleic acid
[2] = measured here: lipid fluorescence (Fed channel) AC50, cells fed with added oleic acid

| SMILES | cell number change [%] | AC50 [1] | AC50 [2] |
| --- | --- | --- | --- |
| Cc1ccc2nc(SCC(=O)c3ccc4c(c3)OCO4)[nH]c2c1 | -1.93 | 0.731 µM [rising, full curve] | 1.3 µM [rising, full curve] |
| CC(C)CC(=O)Nc1ccccc1N1CCOCC1 | -57.2 | 23.1 µM [falling, single point] |  |
| Cc1ccc2c(c1)cc(CN(Cc1cccnc1)C(=O)NCc1ccccc1)c1nnnn12 |  | 1.84 µM [rising, partial curve] | 2.31 µM [rising, partial curve] |
| Nc1nc(CSc2ncccn2)nc(Nc2ccccc2)n1 | 5.76 |  |  |
| O=C(CSc1ccc2c(c1)OCCO2)Nc1ccc(Br)cn1 | 15.9 | 0.00411 µM [rising, full curve, poor fit] |  |
| COc1ccc2oc(C(=O)N(C)CCOc3ccc(Cl)cc3)c(C)c2c1 | -9.67 |  | 0.58 µM [rising, single point] |
| CCN(CC(=O)NCc1cccs1)S(=O)(=O)c1ccc([N+](=O)[O-])cc1 | -8.12 |  | 0.651 µM [rising, full curve, poor fit] |
| COc1ccccc1-c1nn(-c2ccccc2)cc1C(=O)NC1CC1 | -10.9 |  | 0.291 µM [rising, full curve, poor fit] |
| Cc1ccccc1C(=O)NN1CC(C(=O)OCc2ccc(Cl)c(Cl)c2)CC1=O (stereo not drawn) | 16.6 | 0.82 µM [rising, full curve, poor fit] | 2.59 µM [rising, full curve] |
| C/C(=N\NC(=O)c1csc(C)c1C)c1ccc(C)s1 | 32 | 29.1 µM [rising, single point] | 23.1 µM [rising, single point] |
| Cc1ccc(C(=O)c2cc3c(cc2[N+](=O)[O-])OCCO3)cc1 | -4.62 |  | 25.9 µM [falling, partial curve] |
| CCSc1nc2cc(OC)c(OC)cc2c(=O)n1CC |  |  | 5.8 µM [rising, single point] |
| CCOC(=O)c1cnn(C)c1NC(=O)c1ccc([N+](=O)[O-])cc1 | 2.63 |  | 3.55 µM [rising, single point] |
| N/C(=N\O)c1ccc(N2CCN(c3ncccc3C(F)(F)F)CC2)nc1 | -13.6 |  | 20.6 µM [falling, single point] |
| COc1cc2c(cc1NC(=O)COC(=O)[C@@H](NS(=O)(=O)c1ccccc1)C(C)C)oc1ccccc12 | -9.51 |  | 20.6 µM [falling, single point] |
| NC(N)=NS(=O)(=O)c1ccc(NC(=S)NC(=O)/C=C/c2cccs2)cc1 | 25.4 |  |  |
| O=C(O)CC/C(=C\c1ccc(N2CCOCC2)c([N+](=O)[O-])c1)c1nc2ccccc2s1 |  | 0.146 µM [falling, single point] |  |
| NC(=O)CC(NC(=O)c1ccccc1)c1ccc(NCc2ccc(F)cc2)c([N+](=O)[O-])c1 (stereo not drawn) | 1.59 |  | 32.6 µM [falling, partial curve, poor fit] |
| CC(=O)c1coc2ccc(OCCN3CCCCC3)cc12 | -0.778 |  |  |
| O=C(COc1ccc(Cl)cc1)NNC(=O)CSc1nncs1 | 41.9 |  |  |

| SMILES | cell number change [%] | AC50 [1] | AC50 [2] |
| --- | --- | --- | --- |
| CCc1cccc(NS(=O)(=O)c2ccc3c(c2)n(C)c(=O)n3C)c1 | -18.3 |  |  |
| CCOC(=O)/C(=C/c1c(C)n(C)c2ccc([N+](=O)[O-])cc12)C(C)=O | 0.454 |  | 23.1 µM [falling, single point] |
| Cc1c(C(=O)OCC(=O)N(C)Cc2ccc(Cl)cc2)oc2ccccc12 | -3.88 |  | 0.116 µM [rising, full curve, poor fit] |
| CCNC(=S)N/N=C/c1ccc(OCc2ccc(C(=O)OC)cc2)cc1 | 30.9 | 0.0326 µM [rising, full curve, poor fit] |  |
| CC(C)Oc1ccc(C(=O)N2CCCc3ccccc32)cc1 | -16.9 |  | 0.184 µM [rising, full curve, poor fit] |
| COc1ccc(N(CC(=O)N2CCN(Cc3ccccc3)CC2)S(C)(=O)=O)cc1 | 8.56 |  | 0.58 µM [rising, single point] |
| Cc1ccc(C2=NN(C(=O)CCCC(=O)O)C(c3ccc4c(c3)OCO4)C2)cc1 (stereo not drawn) | 9.85 |  | 29.1 µM [rising, single point] |
| O=C(COC(=O)c1ccccc1)NC12CC3CC(CC(C3)C1)C2 | 9.84 |  | 0.00461 µM [rising, full curve, poor fit] |
| COc1ccc(NC(=O)CCC(=O)N(Cc2ccc(OC)c(OC)c2)c2nccs2)cc1 | 3.74 |  | 7.31 µM [rising, partial curve, poor fit] |
| CC(=O)C1=C(C)NC(SCC(=O)c2ccc(F)cc2)=C(C#N)C1c1ccco1 (stereo not drawn) | -5.42 |  | 4.11 µM [falling, single point] |
| O=C(c1ccc(-c2ccccc2)cc1)N1CCCC1 | -13.5 |  | 2.31 µM [rising, single point] |
| CC1CN(C(=O)COC(=O)c2ccccc2O)CC(C)O1 (stereo not drawn) | -6.41 |  |  |
| CCCCOCCCNCC(=O)Nc1ccc(S(N)(=O)=O)cc1 | -24.8 |  |  |
| O=C(/C=C\c1ccc2c(c1)OCO2)NC1(C(=O)Nc2ccc3c(c2)OCO3)CCCCC1 |  |  | 0.82 µM [rising, single point] |
| CCOC(=O)c1cccnc1SCC(=O)Nc1ccc(C)cc1 | 29 | 4.61 µM [rising, full curve, poor fit] | 4.61 µM [rising, full curve] |
| Cc1[nH]c2ccccc2c1C(=O)C(=O)N1CCN(c2ccccc2F)CC1 |  |  | 14.6 µM [falling, partial curve, poor fit] |
| CCCc1nc2c(sc3nc4c(cc32)COC(C)(C)C4)c(=O)o1 | 128 |  |  |
| O=C(NCc1ccccc1)c1cc2ccc(O)cc2oc1=O | -10.1 |  | 29.1 µM [rising, single point] |
| CCN1CCN(c2nc(-c3cccnc3)nc3ccccc23)CC1 | 172 | 18.4 µM [rising, partial curve] | 16.4 µM [rising, partial curve] |
| COc1ccc(S(=O)(=O)N2CCN(C(=O)Cc3ccsc3)CC2)cc1 | 129 | 0.116 µM [falling, full curve, poor fit] |  |

3 entries already listed, ordered by count of non-hydrogen atoms, rising.

| SMILES | cell number change [%] | AC50 [1] | AC50 [2] |
| --- | --- | --- | --- |
| CC1CN(C(=O)COC(=O)c2ccccc2O)CC(C)O1 (stereo not drawn) | -6.41 |  |  |
| CCCCOCCCNCC(=O)Nc1ccc(S(N)(=O)=O)cc1 | -24.8 |  |  |
| CCc1cccc(NS(=O)(=O)c2ccc3c(c2)n(C)c(=O)n3C)c1 | -18.3 |  |  |
